Results deposited as PubChem BioAssay AID1259308 (NCATS, 2017)
Shown is one part, drawn at random, of about 59,000 reagents. About 1,510 of all reagents (2.6%) count as active. 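Calls use total luciferase alone and ignore viability, so some active siRNAs may act by altering cell number.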 A number with no mark means an inactive call. Reagents against one gene are numbered here. Further read-outs or replicates are left out here.

Aim: 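Candidate targets for better recombinant protein yield in mammalian cells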 (primary screen)
Cells: human HEK293 embryonic kidney cells stably expressing firefly luciferase (HEK-CMV-Luc2-Hygro)
Knock-down reagent: single siRNA against human genes, 0.8 pmol siRNA per well
Time to read-out: 72 h
Measurement: 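Luciferase light (ONE-Glo) measured on one replicate plate set and viability (CellTiter-Glo) on the other, scaled to a negative control siRNA, with robust z-scores and luciferase per cell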
Reading the numbers: total luciferase, z-score: higher = more reporter protein produced
Call rule: 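An siRNA counts as active if its total luciferase robust z-score exceeds 3; genes with two or more such siRNAs out of three were retested with fresh siRNAs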
Calls: active = raised luciferase; inactive = no rise

EEF1A1 #1 — total luciferase, z-score = -0.309
EEF1A1 #2 — total luciferase, z-score = -0.937
EEF1A1 #3 — total luciferase, z-score = -1.28
BSX #1 — total luciferase, z-score = 1.12
BSX #2 — total luciferase, z-score = -0.23
BSX #3 — total luciferase, z-score = 3.35 (active)
IL27 #1 — total luciferase, z-score = -0.256
IL27 #2 — total luciferase, z-score = 0.276
IL27 #3 — total luciferase, z-score = -1.4
CTNNBIP1 #1 — total luciferase, z-score = -0.00585
CTNNBIP1 #2 — total luciferase, z-score = -0.317
CTNNBIP1 #3 — total luciferase, z-score = -0.33
PLPPR2 #1 — total luciferase, z-score = -1.54
PLPPR2 #2 — total luciferase, z-score = -0.161
PLPPR2 #3 — total luciferase, z-score = -1.02
PRDM1 #1 — total luciferase, z-score = 0.26
PRDM1 #2 — total luciferase, z-score = -1.41
PRDM1 #3 — total luciferase, z-score = 0.843
CATIP #1 — total luciferase, z-score = -0.231
CATIP #2 — total luciferase, z-score = -0.569
CATIP #3 — total luciferase, z-score = 0.31
GPATCH1 #1 — total luciferase, z-score = -1.32
GPATCH1 #2 — total luciferase, z-score = -0.765
GPATCH1 #3 — total luciferase, z-score = -0.485
SIX3 #1 — total luciferase, z-score = -1.36
SIX3 #2 — total luciferase, z-score = -1.03
SIX3 #3 — total luciferase, z-score = 1.62
KLHL30 #1 — total luciferase, z-score = -1.74
KLHL30 #2 — total luciferase, z-score = -0.112
KLHL30 #3 — total luciferase, z-score = 0.634
SOX18 #1 — total luciferase, z-score = -0.124
SOX18 #2 — total luciferase, z-score = -0.399
SOX18 #3 — total luciferase, z-score = 2.35

Ordered by “total luciferase, z-score” (low to high): some entries from above.
IL27 #1 — total luciferase, z-score = -0.256
BSX #3 — total luciferase, z-score = 3.35 (active)
